Measured values published in article PMC4260761.
Results are given in words; binding and its absence hold for the method and conditions named. Binding seen in cells or lysates may run through a third protein. Some results given as binding are weak or reduced against the parent protein; the word gives no strength.

Protein sequences, listed by entry. Tags and fused reporters are not part of them.
UniProt P49841: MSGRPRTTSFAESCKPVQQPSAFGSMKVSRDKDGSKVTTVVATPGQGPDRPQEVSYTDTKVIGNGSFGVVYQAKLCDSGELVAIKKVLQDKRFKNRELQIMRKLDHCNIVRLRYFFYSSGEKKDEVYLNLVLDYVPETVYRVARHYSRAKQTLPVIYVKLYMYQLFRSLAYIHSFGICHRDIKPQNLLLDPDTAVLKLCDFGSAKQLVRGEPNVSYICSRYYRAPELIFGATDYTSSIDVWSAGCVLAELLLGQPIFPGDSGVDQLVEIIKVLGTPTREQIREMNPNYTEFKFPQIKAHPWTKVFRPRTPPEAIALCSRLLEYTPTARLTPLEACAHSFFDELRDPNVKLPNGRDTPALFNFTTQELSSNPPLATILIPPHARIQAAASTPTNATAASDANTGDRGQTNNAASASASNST

Target: glycogen synthase kinase 3β (human (endogenous in 293T)) (UniProt P49841)
Assay: co-IP; endogenous proteins of 293T cells; precipitated with a GSK3β antibody, PKG2 detected by western blot; cells treated with Wnt3a alone or with other test agents before lysis; standard protocols

B1: cGMP-dependent protein kinase 2 (protein, UniProt Q13237 1-762)
chain: MGNGSVKPKHSKHPDGHSGNLTTDALRNKVTELERELRRKDAEIQEREYHLKELREQLSKQTVAIAELTEELQNKCIQLNKLQDVVHMQGGSPLQASPDKVPLEVHRKTSGLVSLHSRRGAKAGVSAEPTTRTYDLNKPPEFSFEKARVRKDSSEKKLITDALNKNQFLKRLDPQQIKDMVECMYGRNYQQGSYIIKQGEPGNHIFVLAEGRLEVFQGEKLLSSIPMWTTFGELAILYNCTRTASVKAITNVKTWALDREVFQNIMRRTAQARDEQYRNFLRSVSLLKNLPEDKLTKIIDCLEVEYYDKGDYIIREGEEGSTFFILAKGKVKVTQSTEGHDQPQLIKTLQKGEYFGEKALISDDVRSANIIAEENDVACLVIDRETFNQTVGTFEELQKYLEGYVANLNRDDEKRHAKRSMSNWKLSKALSLEMIQLKEKVARFSSSSPFQNLEIIATLGVGGFGRVELVKVKNENVAFAMKCIRKKHIVDTKQQEHVYSEKRILEELCSPFIVKLYRTFKDNKYVYMLLEACLGGELWSILRDRGSFDEPTSKFCVACVTEAFDYLHRLGIIYRDLKPENLILDAEGYLKLVDFGFAKKIGSGQKTWTFCGTPEYVAPEVILNKGHDFSVDFWSLGILVYELLTGNPPFSGVDQMMTYNLILKGIEKMDFPRKITRRPEDLIRRLCRQNPTERLGNLKNGINDIKKHRWLNGFNWEGLKARSLPSPLQRELKGPIDHSYFDKYPPEKGMPPDELSGWDKDF
B1 was tested, and the binding was “binds”.
